Test results reported in PubChem BioAssay AID2685 (National Center for Advancing Translational Sciences (NCATS), 2010).
In all, about 320,000 compounds went through this assay and about 2,100 (0.66%) were called active. Inconclusive results, whose numbers are uncertain, are shown with a selection of clear calls. Calls come from the whole dose curve; as a rule, active = well fitted inhibition curve with a large enough effect in the signal ratio, with a control signal flat (not every such curve was filed as active); inconclusive = small, poorly fitted or top-dose-only effect, or effect the other way, or a change in a side signal; inactive = flat fitted curve, though single readings scatter; the % refers to the signal ratio. Where the call is inconclusive, the potency comes from a doubtful curve fit.

Assay: qHTS Assay for Lipid Storage Modulators in Drosophila S3 Cells
Details: BODIPY lipid droplet fluorescence, 18-24 h, cells fed with added oleic acid; lipid storage change, negative = inhibition: at 46.1 µM (top of the series) unless noted
How it was run: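 Drosophila S3 cells got compounds at several concentrations plus oleic acid (400 uM solution). Laser-scanning cytometry with 488 nm excitation read lipid droplets at 500-530 nm and cells at 575-640 nm. Percent activity was relative to 20 uM Triacsin C.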
% is set by controls: 0 for no effect and ±100 for the full control effect; potency is the fitted concentration of half-maximal effect.

SMILES	Potency	lipid storage change, negative = inhibition
O=C(Nc1ccccc1F)c1ccc(CN2CCc3ccccc3C2)cc1	inconclusive: 29.1 µM [activator, single point]	–
Cn1ccnc1SCC(=O)c1ccc(O)cc1	–	inconclusive: -13.7%
CCOC(=O)c1cc2c(=O)n3cccc(C)c3nc2n(C)c1=N	–	inconclusive: -0.787%
CSc1sc(C)cc1C=O	–	inconclusive: -19.6%
CCOC(=O)N1CCN(C(=O)c2ccc(Oc3ccc([N+](=O)[O-])cc3)cc2)CC1	–	inconclusive: 39.2%
O=C(c1ccccc1)N1CCN(C(=O)c2cc3ccccc3oc2=O)CC1	–	inconclusive: 22.4%
C(=N\Nc1nc2ccccc2[nH]1)/c1cccs1	inconclusive: 29.1 µM [cytotoxic, single point]	–
Cc1cc(C)c(NC(=O)COC(=O)/C=C/c2cccc(C(F)(F)F)c2)c(C)c1	–	inconclusive: 20.1%
CCCCc1nnc(NC(=O)CN2C(=O)c3ccccc3C2=O)s1	–	inconclusive: -0.169%
CC12CN3CCN(CC(C3)C1(O)CN1CCOCC1)C2 (configuration not stated)	active: 4.61 µM	–
CSc1ccc(-c2nc(CN3CCCCC3c3cccnc3)c(C)o2)cc1 (configuration not stated)	–	inconclusive: -22.7%
CC1=CC(C)(C)Nc2ccc(OC(=O)CN3C(=O)c4ccccc4C3=O)cc21	–	inconclusive: -28.2%
COCc1cnc(C)nc1N	–	inconclusive: 45.9%
Cc1c(N(C(=O)Nc2ccccc2)C2=NCC(C)S2)c(=O)n(-c2ccccc2)n1C (configuration not stated)	–	inconclusive: -5%
O=C(CCNC(=O)c1ccc([N+](=O)[O-])cc1)Nc1nc2ccccc2[nH]1	–	inconclusive
COc1ccc(C2C(C(=O)c3cccs3)=C(O)C(=O)N2CCN2CCOCC2)c(OC)c1 (configuration not stated)	inconclusive: 18.4 µM [falling, single point]	–
Cc1sc2ncnc(SCC(=O)NC3CCCC3)c2c1C	–	inconclusive: 65.2%
Cc1nc(SCc2ccc(C(=O)O)cc2)c2c(C)c(C)sc2n1	inconclusive: 0.651 µM [falling, single point]	–
COc1ccccc1CNC(=O)c1ccc(NS(C)(=O)=O)cc1	–	inconclusive: 44.2%
CC(C)(C)c1ccc(CN2N=C(/C=C/c3ccccc3)CCC2=O)cc1	inconclusive: 0.731 µM [activator, single point]	–
CCOC(=O)C1=C(C)Nc2nnnn2C1c1ccccc1Cl (configuration not stated)	–	inconclusive: -21.6%
CCN1CCN(CCNC(=O)c2ccc(CS(=O)c3ccc(Cl)cc3)o2)CC1 (configuration not stated)	–	inactive
O=C(CCCSc1nc2sc3c(c2c(=O)[nH]1)CCC3)NCCO	–	inconclusive: 56.5%
Cc1ccc2c(Cl)cc(Cl)c(OCc3c(C)noc3C)c2n1	inconclusive: 0.116 µM [activator, full curve, poor fit]	–
O=C(NCC1CCCO1)c1cc2c(s1)CCCC2 (configuration not stated)	–	inconclusive: -47.5%
CC(C)CC(=O)NC(=S)Nc1ccc(S(=O)(=O)NC(C)(C)C)cc1	inconclusive: 29.1 µM [falling, single point]	–

SMILES	Potency	lipid storage change, negative = inhibition
Cc1nn(C)cc1S(=O)(=O)Nc1ccc(F)c(F)c1	–	inconclusive: 8.21%
CCOC(=O)C1=C(c2ccccc2)NC(=O)NC1c1ccsc1 (configuration not stated)	inconclusive: 0.58 µM [falling, single point]	–
O=C(NNC(=S)NCc1ccc(Cl)cc1)c1ccc(Br)o1	–	inconclusive: -27%
COc1ccc2nc(SCC(=O)Nc3ccccc3)[nH]c2c1	inconclusive: 23.1 µM [falling, single point]	–
NC(=O)CC(NC(=O)Cc1ccc(Br)cc1)c1ccc(N2CCN(c3ccc(F)cc3)CC2)c([N+](=O)[O-])c1 (configuration not stated)	–	inconclusive: -31.6%
NS(=O)(=O)c1ccc(NC(=O)CN2C(=O)CCC2=O)cc1	–	inconclusive: -35.4%
CCSc1nc2c(c(=O)[nH]1)C(c1ccncc1)C(C(=O)OC(C)C)=C(C)N2 (configuration not stated)	–	inconclusive: -81.2%
COc1ccccc1/C=C/C(=O)OCC(=O)Nc1c(C)nn(-c2ccccc2)c1C	–	inconclusive: 71.4%
O=C(N/N=C/c1cccc(F)c1)c1csc2c1CCCC2	–	inactive
COc1ccc(-c2c(C#Cc3ccsc3)c3ccccc3n2C)cc1	–	inconclusive: -78.7%
C=CCn1c(SCC(=O)Nc2ccc(N3CCOCC3)cc2)nnc1-c1ccco1	inconclusive: 29.1 µM [activator, single point]	–
CCc1cccc(NC(=O)CCSCCC(=O)Nc2cccc(CC)c2)c1	–	inconclusive: 3.82%
Clc1ccc(-c2nn3c(-c4ccccc4)nnc3s2)cc1	inconclusive: 7.31 µM [falling, partial curve]	–
Cc1c(C(=O)NCc2ccc3c(c2)OCO3)oc2ccc(S(=O)(=O)N3CCCC3)cc12	–	inactive
CC(=O)c1ccc(S(=O)(=O)NCCCC(=O)NCCc2ccccn2)cc1	–	inconclusive: 8.07%
CCC(=O)NC(=S)Nc1ccc(NC(=S)NC(=O)c2ccc(C)cc2)cc1	–	inconclusive: 7.81% [at 9.22 µM]
O=c1[nH]c(=O)n([C@H]2C[C@H](O)[C@@H](CO)O2)cc1I	–	inconclusive: -47.3%
CCN(CC)C(=O)Cn1cc(S(=O)(=O)CC(=O)N2CCCCCC2)c2ccccc21	–	inconclusive: -25.6%
COc1ccc(N(CC(=O)Nc2ccccc2C(=O)NCCc2ccccc2)S(C)(=O)=O)cc1OC	inconclusive: 23.1 µM [activator, single point]	–
COc1ccc(/C=C2/SC(=S)N(Cc3ccccc3)C2=O)cc1O	–	inconclusive: -100%
COc1cccc(=O)c2c(C)oc(C)c12	inconclusive: 0.517 µM [activator, full curve]	–
CCN(CC)c1ccc(/C=N/NC(=O)CC(C)C)cc1	–	inconclusive: 33.2%
COCCCn1c(=O)c2ccccc2n(CC(=O)NC2CCCC2)c1=O	–	inconclusive: -20.6%
CCOCCCN(C(=O)Cn1nnc(-c2ccc(C)o2)n1)C(C(=O)NC1CCCC1)c1ccc(C)o1 (configuration not stated)	–	inconclusive: 82.8%
COC(=O)c1c(NC(=O)/C=C/C(=O)O)sc(C)c1-c1ccc(C)c(C)c1	–	inconclusive: -16.3%
CCCCSc1nc(O)c(C2OC(=O)c3c2ccc(OC)c3OC)c(=O)n1-c1ccccc1 (configuration not stated)	–	inactive

SMILES	Potency	lipid storage change, negative = inhibition
Cn1c(=O)c2cc(S(=O)(=O)NC(C(=O)Nc3cccc(F)c3)c3ccccc3)ccc2n(C)c1=O (configuration not stated)	inconclusive: 0.731 µM [activator, partial curve]	–
O=C(CSc1n[nH]c(-c2cccs2)n1)NCc1ccc2c(c1)OCO2	inconclusive: 29.1 µM [activator, single point]	–
CCO[C@@H]1OC(C(=O)N2CCCCCCC2)=C[C@H](c2ccc(C(F)(F)F)cc2)[C@H]1CCCO	–	inconclusive: -29.2%
CCOC(=O)c1nnn(CC(=O)N2N=C(c3ccccc3)CC2c2ccccc2)c1C(=O)OCC (configuration not stated)	–	inconclusive: -20.1%
CCCn1c(=NC(C)=O)c(C(=O)OCC)cc2c(=O)n3ccccc3nc21	inconclusive: 0.731 µM [activator, full curve]	–
COc1ccc(CCn2c(=N)c(C(=O)NCCN3CCOCC3)cc3c(=O)n4ccccc4nc32)cc1OC	inconclusive: 16.4 µM [falling, partial curve]	–
CC1CCc2c(C(=O)Nc3nccs3)csc2C1 (configuration not stated)	inconclusive: 29.1 µM [falling, single point]	–
CSCCCNC(=S)Nc1cccc(S(=O)(=O)NC2=NCCC2)c1	–	inconclusive: -52.2%
CC(c1ccccc1)N1CC(C(=O)N2CCCC(C(N)=O)C2)CC1=O (configuration not stated)	–	inconclusive: -11.8%
O=C(CSc1nnc2ccccn12)c1ccc2c(c1)OCCO2	–	inconclusive: 35.7%
CCOC(=O)c1[nH]c2ccc(OC)cc2c1NS(=O)(=O)c1ccc(Cl)s1	–	inconclusive: 35.1%
c1ccc(Nc2nc(N3CCCCC3)nc(N3CCCCC3)n2)cc1	inconclusive: 6.51 µM [falling, single point]	–
CCOC(=O)c1c(Cl)c(C)nn1-c1nc(OC)cc(OC)n1	–	inconclusive: -0.138%
Cc1c(-c2ccc(OCc3ccccc3)cc2)nc2ccccc2c1C(=O)O	inconclusive: 29.1 µM [activator, single point]	–
c1ccc(-c2nn3cnnc3c3ccccc23)cc1	–	inconclusive: 15.9%
c1ccc(CNC2=NCCC2)nc1	inconclusive: 29.1 µM [cytotoxic, single point]	–
Cc1cccc(N(C)C(=S)Oc2ccc3ccccc3c2)c1	inconclusive: 4.61 µM [activator, partial curve]	–
COc1ccc(CNC(=O)[C@H](Cc2c[nH]c3ccccc23)NC(=O)[C@@H]2Cc3ccccc3CN2)cc1	inconclusive: 29.1 µM [activator, single point]	–
Cn1c(N)c(C(=O)COC(=O)/C=C/c2cccc(C(F)(F)F)c2)c(=O)n(C)c1=O	–	inconclusive: 17.5%
O=C(NC(=S)N1CCCc2ccccc21)c1ccco1	–	inconclusive: -14.8% [at 9.22 µM]
CCOc1ccc2c(c1)C(C)=CC(C)(C)N2S(=O)(=O)c1ccc(NC(C)=O)cc1	active: 7.31 µM	–
O=C1CN(c2ccc(Br)cc2)C(=O)N1CC(=O)N1CCCc2ccccc21	–	inconclusive: 34.8%
CC(C)CNc1nc(Oc2ccc(=O)n(-c3ccccc3)n2)nc(N2CCOCC2)n1	–	inconclusive: 42%
CCCOc1ccc(C(=O)OCC(=O)NCCc2ccc(OCC)c(OCC)c2)cc1OC	inconclusive: 0.146 µM [cytotoxic, full curve]	–
CCOC(=O)C1CCCN(Cc2ccccc2C)C1 (configuration not stated)	inconclusive: 0.82 µM [falling, full curve]	–

Part of the list above in another layout:
CCOC(=O)c1nnn(CC(=O)N2N=C(c3ccccc3)CC2c2ccccc2)c1C(=O)OCC (configuration not stated)
  lipid storage change, negative = inhibition: inconclusive: -20.1%
CCCn1c(=NC(C)=O)c(C(=O)OCC)cc2c(=O)n3ccccc3nc21
  Potency: inconclusive: 0.731 µM [activator, full curve]
COc1ccc(CCn2c(=N)c(C(=O)NCCN3CCOCC3)cc3c(=O)n4ccccc4nc32)cc1OC
  Potency: inconclusive: 16.4 µM [falling, partial curve]
CC1CCc2c(C(=O)Nc3nccs3)csc2C1 (configuration not stated)
  Potency: inconclusive: 29.1 µM [falling, single point]
